# Experimental data published in PubChem BioAssay AID445 (National Center for Advancing Translational Sciences (NCATS), 2006).
# Some of the results follow. Further columns of the screen follow, without active or inactive calls. Compounds called inactive in the main read-out are mostly missing here. Potencies come from curve fits of mixed quality, noted in brackets.
# Assay: IkB Signaling
# Conditions: ABC-DLBCL IkBa-CBG/CBR dual luciferase ratio (green luciferase fused to IkBa over red control in OCI-Ly3 lymphoma cells), 4 h
# Method in brief: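 Luminescence ratio of IκBα-fused green versus native red beetle luciferase in OCI-Ly3 cells, 4 h post-doxycycline with compound; red signal alone, scaled from basal (0%) to zero light (-100%), flagged nonspecific or cytotoxic effects.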
# [1] = measured here: control luc red channel unless noted
smiles,measurement,setting,value
CCOC(=O)C1=C(CN2CCN(c3ccccc3OC)CC2)NC(=O)NC1c1ccccc1 (stereo not given),AC50,[1],"7.94 µM [falling, partial curve]"
O=C(CN1CCCN(Cc2ccccc2F)S1(=O)=O)Nc1ccc(F)c(Cl)c1,AC50,[1],"25.1 µM [falling, single point]"
CCc1cccc(C)c1NC(=O)Cn1nc(C)n2cccc2c1=O,AC50,[1],"0.794 µM [falling, full curve]"
COCC(C)NC(=O)CCS(=O)(=O)c1nc(-c2ccc(OC)cc2)cc(C(F)(F)F)n1 (stereo not given),AC50,[1],"7.94 µM [falling, full curve]"
Cc1cc(NC(=O)CN2C(=O)c3cccnc3Sc3ccccc32)ccc1Br,AC50,[1],"25.1 µM [falling, partial curve]"
CCc1ccccc1NC(=O)Nc1nnc(N(CC)c2ccccc2)s1,AC50,[1],"20 µM [falling, partial curve]"
CC(=O)n1cc(C2C(=O)CCCC2=O)c2ccccc21,AC50,[1],"6.31 µM [falling, partial curve]"
Cc1ccc2oc(=O)c(S(=O)(=O)c3ccc(C(C)(C)C)cc3)cc2c1,AC50,[1],"0.0158 µM [falling, full curve, poor fit]"
CN(C)c1ccc(CNC(=O)CN2CCSc3ccc(S(=O)(=O)N(C)C)cc32)cc1,AC50,[1],"39.8 µM [falling, single point]"
CCCCCn1c(=O)[nH]c2cc(C(=O)N3CCN(c4cccc(C(F)(F)F)c4)CC3)ccc2c1=O,AC50,[1],"2.51 µM [falling, full curve]"
CCN(c1ccccc1)S(=O)(=O)c1nnc(NC(=O)COc2cccc(C)c2)s1,AC50,[1],"0.01 µM [rising, full curve]"
O=C(Nc1ccc(Br)cc1)C1CCCN1S(=O)(=O)c1ccc(F)cc1 (stereo not given),AC50,[1],"25.1 µM [falling, single point]"
COc1ccc(CNC(=O)c2oc3c(c2C)-c2nn(Cc4ccc(Cl)cc4)cc2CC3)cc1,AC50,[1],"25.1 µM [falling, partial curve, poor fit]"
Cc1nnc(Sc2nc3c(c(=O)n(C)c(=O)n3C)n2Cc2ccc(Cl)cc2)s1,AC50,[1],"39.8 µM [rising, single point] [measured here: IkB-luc green channel]"
CCN(C(=O)c1cc2c(=O)oc3ccc(C)cc3c2s1)c1ccccc1C,AC50,[1],"3.98 µM [rising, partial curve]"
CCN(CC)S(=O)(=O)c1ccc2nc(NC(=O)c3cncc(Br)c3)sc2c1,AC50,[1],"6.31 µM [falling, partial curve]"
Cc1cccn2c(=O)c(C(=O)NC(C)c3ccccc3)cnc12 (stereo not given),AC50,[1],"0.0251 µM [rising, full curve, poor fit]"
Cc1ccc(OCc2nc(-c3ccc(C(=O)NCc4ccc(OC(C)C)cc4)cc3)oc2C)cc1,AC50,[1],"39.8 µM [falling, single point]"
Cc1ccc(C(=O)c2cn(Cc3ccc(Cl)cc3)c3nc(C)ccc3c2=O)cc1,AC50,[1],"20 µM [falling, partial curve, poor fit]"
COc1ccc(N2CCN(C(=O)CSc3n[nH]c(-c4ccccc4Cl)n3)CC2)cc1,AC50,[1],"3.16 µM [rising, single point]"
Cc1cc(C)cc(N2C(=O)N(Cc3cccc(F)c3)c3ccccc3S2(=O)=O)c1,AC50,[1],"3.98 µM [rising, single point]"
COc1ccc(Nc2oc(-c3ccc(COc4ccccc4C)o3)nc2C#N)cc1,AC50,[1],"12.6 µM [falling, single point]"
Cc1cc(C)c2cc(CN(Cc3nnnn3C3CCCCC3)CC3CCCO3)c(=O)[nH]c2c1 (stereo not given),AC50,[1],"31.6 µM [falling, partial curve]"
Cc1ccc(C(C)C)c(OCCSc2nc3ccccc3n2CC(O)CO)c1 (stereo not given),AC50,[1],"25.1 µM [falling, partial curve]"
CC(C)Cn1c(-c2ccc(S(=O)(=O)N3CCOCC3)cc2)csc1=Nc1cc(Cl)ccc1Cl,AC50,[1],"10 µM [falling, partial curve]"
COc1cccc(NC(=O)/C(C#N)=C/c2c(C)n(Cc3ccc(Cl)cc3)c3ccccc23)c1,AC50,[1],"1.58 µM [falling, full curve]"
C[C@@]12C(=O)OC(=O)[C@]1(C)[C@H]1CC[C@@H]2O1,AC50,measured here: IkB-luc green channel,"6.31 µM [rising, full curve]"
same,AC50,measured here: control luc red channel,"1.58 µM [rising, partial curve]"
CCOC(=O)c1cnc(SCc2nc(N)nc(Nc3ccc(F)cc3)n2)nc1N,AC50,[1],"0.794 µM [rising, partial curve]"
CC(C)Nc1nnc(SCC(=O)Nc2ccc(F)cc2)s1,AC50,[1],"0.631 µM [falling, partial curve]"
O=C(NCc1ccco1)c1ccc2c(c1)N(Cc1ccc(Cl)cc1)C(=O)c1ccccc1S2,AC50,[1],"12.6 µM [falling, partial curve]"
O=c1cc(-c2ccncc2)oc2ccccc12,AC50,[1],"12.6 µM [falling, partial curve]"
CCOC(=O)c1c(N2C(=O)C3C4C=CC(O4)C3C2=O)sc2c1CCCC2 (stereo not given),AC50,[1],"10 µM [falling, partial curve]"
CCOC(=O)Cc1csc(NC(=O)CSc2ncnc3c2cnn3-c2ccccc2Cl)n1,AC50,[1],"12.6 µM [falling, partial curve]"
COc1ccc(-c2nnc(SCc3ccccc3F)o2)cc1OC,AC50,[1],"1.26 µM [rising, full curve]"
CN(C)CCNc1oc(-c2ccc(COc3ccc(Cl)cc3)o2)nc1C#N,AC50,[1],"25.1 µM [falling, partial curve]"
COc1ccc(N2CCN(Cc3nnc(-c4cccc(Br)c4)o3)CC2)cc1,AC50,[1],"20 µM [falling, partial curve]"
COc1ccc(CCNC(=O)C(C)n2c(=O)cc(C(F)(F)F)c3c(C)nn(C)c32)cc1OC (stereo not given),AC50,[1],"12.6 µM [falling, partial curve]"
Cc1cc(C)cc(Oc2nc3c(C)cccn3c(=O)c2/C=C(\C#N)c2nc3ccccc3s2)c1,AC50,[1],"10 µM [falling, partial curve]"
CCc1ccc(C(=O)c2cn(Cc3ccc(F)cc3)c3cc(OC)c(OC)cc3c2=O)cc1,AC50,[1],"39.8 µM [falling, single point]"
